Results on 9 compounds are retold here after patent US20230348376A1 (TEIJIN PHARMA LIMITED, priority 2020, published 2023).

The structures appear in SMILES notation.

The first series has as its system rat oligodendrocyte progenitor cells. As to the kind of experiment: Promotive activity of rat oligodendrocyte progenitor cell differentiation-2 (immunostaining of MBP). In kind it is cell-based. Particulars: Test 1; vitamin D derivative 2 μM, T3 30 nM. The procedure: The promotive activity of oligodendrocyte progenitor cell (OPC) differentiation of the vitamin D derivatives was evaluated by immunostaining of MBP.
Subsequently, oligodendrocyte progenitor cell separation medium was added to the flask, and the mixture was similarly shaken for about 22 hours (37° C., 200 rpm), and the supernatant was collected to prepare oligodendrocyte progenitor cells.
As to `C=C1/C(=C\C=C2/CCC[C@]3(C)[C@@H]([C@H](C)CN4CC[C@H](C(F)F)C4)CC[C@@H]23)C[C@@H](O)C[C@@H]1O` [Compound B020, (1R,3S,Z)-5-(2-((1R,3aS,7aR,E)-1-((S)-1-((S)-3-(difluoromethyl)pyrrolidin-1-yl)propan-2-yl)-7a-methyloctahydro-4H-inden-4-ylidene)ethylidene)-4-methylenecyclohexane-1,3-diol], the “Significant difference (t-test vs DMSO group)” value (from here on “Significant difference”) is “**** (<0.0001)”.
As to `C[C@H](CN1CC[C@H](C(F)F)C1)[C@H]1CC[C@H]2/C(=C/C=C3C[C@@H](O)C[C@H](O)C3)CCC[C@]12C` [Compound B022, (1R,3R)-5-(2-((1R,3aS,7aR,E)-1-((S)-1-((S)-3-(difluoromethyl)pyrrolidin-1-yl)propan-2-yl)-7a-methyloctahydro-4H-inden-4-ylidene)ethylidene)cyclohexane-1,3-diol], the “Significant difference” value is “**** (<0.0001)”.
With `C=C1[C@H](O)CC(=C/C=C2\CCC[C@]3(C)[C@@H]([C@H](C)CN4CC[C@H](C(F)F)C4)CC[C@@H]23)C[C@H]1O` [Compound B023, (1R,3R)-5-(2-((1R,3aS,7aR,E)-1-((S)-1-((S)-3-(difluoromethyl)pyrrolidin-1-yl)propan-2-yl)-7a-methyloctahydro-4H-inden-4-ylidene)ethylidene)-2-methylenecyclohexane-1,3-diol], the “Significant difference” value is on record as “**** (<0.0001)”.
Turning to `C=C1/C(=C\C=C2/CCC[C@]3(C)[C@@H]([C@H](C)CN4CC[C@@H](C(F)F)C4)CC[C@@H]23)C[C@@H](O)C[C@@H]1O` [Compound B024, (1R,3 S,Z)-5-(2-((1R,3aS,7aR,E)-1-((S)-1-((R)-3-(difluoromethyl)pyrrolidin-1-yl)propan-2-yl)-7a-methyloctahydro-4H-inden-4-ylidene)ethylidene)-4-methylenecyclohexane-1,3-diol], the “Significant difference” value is on record as “**** (<0.0001)”.
For the compound `C[C@H](CN1CC[C@@H](C(F)F)C1)[C@H]1CC[C@H]2/C(=C/C=C3C[C@@H](O)C[C@H](O)C3)CCC[C@]12C` [Compound B026, (1R,3R)-5-(2-((1R,3aS,7aR,E)-1-((S)-1-((R)-3-(difluoromethyl)pyrrolidin-1-yl)propan-2-yl)-7a-methyloctahydro-4H-inden-4-ylidene)ethylidene)cyclohexane-1,3-diol], the “Significant difference” value is listed as “**** (<0.0001)”.
Same read-out and setting: then `C=C1[C@H](O)CC(=C/C=C2\CCC[C@]3(C)[C@@H]([C@H](C)CN4CC[C@@H](C(F)F)C4)CC[C@@H]23)C[C@H]1O` [Compound B027, (1R,3R)-5-(2-((1R,3aS,7aR,E)-1-((S)-1-((R)-3-(difluoromethyl)pyrrolidin-1-yl)propan-2-yl)-7a-methyloctahydro-4H-inden-4-ylidene)ethylidene)-2-methylenecyclohexane-1,3-diol], with “**** (<0.0001)”.
`C=C1/C(=C\C=C2/CCC[C@]3(C)[C@@H]([C@H](C)CN4CC[C@H](C(C)(F)F)C4)CC[C@@H]23)C[C@@H](O)[C@H](C)[C@@H]1O` [Compound B029, (1R,2S,3S,Z)-5-(2-((1R,3aS,7aR,E)-1-((S)-1-((S)-3-(1,1-difluoroethyl)pyrrolidin-1-yl)propan-2-yl)-7a-methyloctahydro-4H-inden-4-ylidene)ethylidene)-2-methyl-4-methylenecyclohexane-1,3-diol]: the “Significant difference” value was “**** (<0.0001)”.

Still in this series, the particulars now being: Test 2; vitamin D derivative 2 μM, T3 30 nM.
As to `C=C1[C@H](O)CC(=C/C=C2\CCC[C@]3(C)[C@@H]([C@H](C)CN4CCCC(O)(C(F)F)C4)CC[C@@H]23)C[C@H]1O` (single isomer, unassigned) [Compound C036a], the “Significant difference” value was “**** (<0.0001)”.
Consider `C=C1[C@H](O)CC(=C/C=C2\CCC[C@]3(C)[C@@H]([C@H](C)CN4CCCC(O)(C(F)F)C4)CC[C@@H]23)C[C@H]1O` (single isomer, unassigned) [Compound C036b], for which the “Significant difference” value was “*** (<0.001)”.
